Test results reported in the supplement of paper PMC5949888.
Most values lie at the floor of the assay. Slopes are relative: functional sequences can read slightly below zero.

tested on: Saccharomyces cerevisiae PS128 hsf1 delta, HSF1(1-493) fusion; test: growth estimate (transactivation domain function in HSF1 fusion, heat-shock survival) (a.u. (slope of normalised read count over time)); higher = stronger growth at 37°C, i.e. more transactivation activity; conditions: library: random library

Substance | growth estimate
SVAEPH | < -0.25
NLRTLS | < -0.25
RSSDLWHEVMFRVLRLVGRR | < -0.25
CVTIKGQVAAPSAVIAPG | < -0.25
RDGRLPWYMSTPPATKY | < -0.25
ITPGRCFYLGLSTAKGRPLS | < -0.25
CHFHRQG | < -0.25
NGSIDFLGSTDVRKRRQLGG | < -0.25
CRLV | < -0.25
PSNSGTLKFSGSLYGTA | < -0.25
FPQGAKACKRWSWSLTAT | < -0.25
GDHRCSIHQTWSGSRHTHG | < -0.25
MDRRFT | < -0.25
DKLAEVLSETRKARERSKRR | < -0.25
FGVSVTGCASEH | < -0.25
SRIVTSISYAGTAPGA | < -0.25
VTARSSDVVLSLDTRPARPC | < -0.25
IHN | < -0.25
EYMRSVMA | < -0.25
SWLILMAKRVTRYEHGGRIF | < -0.25
GHIGPTRIYAFISNAFCLEE | < -0.25
GGLNDVRIARPR | < -0.25
RVATSHGRILWCWVVIGVTE | < -0.25

Substance | growth estimate
WYA | < -0.25
HRIRGGALLLNARKVH | < -0.25
IVDSNEESKLRSSYRASACR | < -0.25
GTGVKLAPECVARGIHCEDC | < -0.25
RSPGKSTRL | < -0.25
LYVRCPAGPSGRPVAQRMSV | < -0.25
LPSSCGLPPSQLSVCAHWNR | < -0.25
VASCIINGF | -0.246
NTIDRHSWRGFSGLNALL | < -0.25
GLMQLIRPKLA | 0.0946
VVARESAQDAKFGSGASI | < -0.25
GAYIQGGSIHCLCSCIDGSG | < -0.25
LKRLSC | < -0.25
GVRWEHSKFYATGPRMGRIC | -0.246
AVPRCLRAYGLHPGGS | 0.246
QLRDEDVRRVEIAKAISPMT | < -0.25
SNQLKSPILG | < -0.25
TAAWY | < -0.25
RRACQTRY | < -0.25
GDWVKEVSQCECLSICYAHT | < -0.25
IGAVRLSLQLSVIEGLMQSA | < -0.25
RWGETLFDWPNRVILRPDPF | -0.157
GHL | < -0.25

As entered above:
growth estimate, GTGVKLAPECVARGIHCEDC is entered as < -0.25
growth estimate, EYMRSVMA is entered as < -0.25
growth estimate, VVARESAQDAKFGSGASI is entered as < -0.25

More records.

Substance | growth estimate
IAVTTFSV | < -0.25
VKVIMYLCLWERRFFPGAL | < -0.25
SRRICVWGGPCVYGVDGGRV | < -0.25
AYLWSGGFCDARGVG | < -0.25
RDRLKTDAIRSPGSFASLVH | < -0.25
NIQFHYPSSAQVRCWITNQT | < -0.25
GICAFKIYKDGNQFTGGGGT | < -0.25
SHATVARMVSVRRLLESYFP | < -0.25
EPVFCIPAAGT | < -0.25
HQLSGSGVA | < -0.25
GNRRGSEVKSRASVEFSG | < -0.25
TGGQGRGVRHCRNQASRCRC | < -0.25
AITHCCQRKPIMGAFIRRRC | < -0.25
ESRENHGIDAG | < -0.25
GAGCSGKRTDVKANS | < -0.25
KLRTLGPHELIP | -0.246
IRVQRCQSIGRLGARISAYA | < -0.25
RGCRA | < -0.25
PGVRKDARQDSTRAIHRPAG | < -0.25
HRSRGQQASEYWSRASWRT | < -0.25
KGDRTRLPDSVINVDIFYGS | < -0.25
RALSLEQNVYRTATQISFPT | < -0.25
SQLSRRRP | < -0.25

Substance | growth estimate
VSRGLAFGLRLTTASSFHFH | -0.0602
SFFSSCIFRAWFGYVATILQ | < -0.25
PPKSHQRIKVRVPSP | < -0.25
GGKGVAPRRPSNCPRWDSY | -0.246
QLEREQLLFVTCLCNPAYQE | < -0.25
TGLFGKFLAVTPQRF | < -0.25
NSRAYNATGEVRVWRSGIVP | < -0.25
IHTVMYQRAPSPSRCQMVTR | < -0.25
HVSSRFADEEDRLCY | < -0.25
NHLVQNCSQSDIPLFGLNLS | < -0.25
NRLCGHIRTGLGQSPLNRWQ | < -0.25
LEAVRCQACAVTQMRDWRAR | < -0.25
ALGVRFYSTDVRTQRN | < -0.25
WFSEPKLRGQVVLTSLWARH | < -0.25
ILSS | < -0.25
PYFVQDYAARRGQPVHLYVR | < -0.25
RYV | < -0.25
QLELGFVHCAVAPALRCGRP | < -0.25
PGIRSQLHVNGVNYSLSTAT | -0.199
YLL | < -0.25
SRASCRE | < -0.25
SWANHERYRGP | < -0.25
RTQRRGWCLRGLIQINSCTL | < -0.25

Substance | growth estimate
HRICTDPQLGVHHG | < -0.25
SAVTFEKVISYSQKAQETYY | -0.245
RQARVLSALHSAESLCLIKV | < -0.25
QLVCSYPGR | < -0.25
DQFQR | < -0.25
GGPAYWAWYISVSRSMLDSS | < -0.25
AEMSRIFDGGRGSIH | < -0.25
GTLGGDMWY | 0.0049
ESL | < -0.25
RRRSVEHPLR | < -0.25
ICDGLIGVLVGTTIATRS | < -0.25
MDRREGPRLTRKLKVDALR | < -0.25
TGTDMVGLSHRHSTESQVGQ | < -0.25
YVQMTIDWGCSIVAFAPGAT | < -0.25
ARGHGSCRDFVSLGSPT | < -0.25
SNSGYRTWVEGPSIDCSQSA | < -0.25
CPLRAVKSSGVS | < -0.25
RKMIVLLSLLDAVIRARPAA | < -0.25
KSSLSPSLFYMRD | < -0.25
GSMF | < -0.25
LLGKAYSQENGEASVIADRA | < -0.25
AICLGP | < -0.25
YNGFGESLCWRFRTVVFYSA | < -0.25

Substance | growth estimate
HHHVATQRTFLLGLAYAEPP | < -0.25
YSVLGNEFWVTLLNPALASH | < -0.25
EVPAPI | < -0.25
YTAPNSTGISSGRGFRSGGE | -0.239
VANERGKEGSGTTDVPAAQP | < -0.25
GSHYFGYRWSLVHLSVTGLD | < -0.25
ASAHLWPRRNSVVGWCRDAR | < -0.25
SRKLLSYQGPCFEALLSSAV | < -0.25
GLM | 0.183
GKEVRRAVGGDTRHIAHPRM | < -0.25
ARGALIVPLIRLLGIRAGGA | < -0.25
FYPKVGMHG | < -0.25
NAGYYGARLPSSCASHLHRP | < -0.25
ALATMSISTLEYIVLPNGIS | < -0.25
GSYISGYLPERCDLGGSR | < -0.25
QVNHRFPKRGLMVWL | < -0.25
LGGGKWRGNRHLSVSSKLPL | -0.239
RGECTRDLV | < -0.25
FQAGP | < -0.25
PFI | < -0.25
SVSFGGLDDVSVYH | -0.0468
CTPSIFVRRLD | < -0.25
SLIIVQTRQVNPLTVTGGRE | < -0.25

Substance | growth estimate
FAIASEE | < -0.25
FVERGGVRVLHSQEYGFCDV | < -0.25
MIMMLMVYRIPCGPIILPRG | -0.243
TASIRSLG | < -0.25
VVLIRILEEMDSQVGTVRPG | < -0.25
LGPRLWAYVQGLPWVGHDGT | < -0.25
DTSVYTNEEPADLHSSYMSW | 0.161
LWGSAVVLAGWDMPFTWRVW | < -0.25
RLGEGWRFAVRFTGISRTAS | < -0.25
DKL | < -0.25
EYIRR | < -0.25
TSTINPSI | < -0.25
ISG | < -0.25
VFPRRIRPAARDNTNWR | < -0.25
NWGYSGGSCALASREFQTMS | < -0.25
LHLAVVTKLSKNSPIGAR | < -0.25
GSYNSIHGDSLLIGEP | < -0.25
IQVIGARHLYTGEHDVGNNT | < -0.25

Five entries drawn at random from the list so far, as already listed:
Substance | growth estimate
LGPRLWAYVQGLPWVGHDGT | < -0.25
RLGEGWRFAVRFTGISRTAS | < -0.25
LWGSAVVLAGWDMPFTWRVW | < -0.25
NWGYSGGSCALASREFQTMS | < -0.25
GSYNSIHGDSLLIGEP | < -0.25
